# Entries after “also recorded” stand apart in the source; their conditions may differ.
# Test system: PMNs
# Assay: HPLC and NanoLC-MS/MS proteomic analysis of PMN secretions induced by CHR and CAT
# Details: Biological sample name Castestatin_11; MS/MS sample name F011563 (F013479); Mascot, SwissProt 55.5, trypsin; Protein Thresholds: 1 peptides score > 52 or at least 2 peptides with score >20
substance,measurement,value
"Castestatin (SSMKLSFRARAYGFRGPGPQL; Catestatin; UniProt P10645 370-390, looked up)",Protein name (protein identified by MS/MS in PMN secretion sample),Gelsolin precursor - Homo sapiens (Human); also recorded: Beta-2-microglobulin precursor [Contains: Beta-2-microglobulin form pI 5.3] - Homo sapiens (Human); also recorded: Matrix metalloproteinase-9 precursor - Homo sapiens (Human); also recorded: Profilin-1 - Homo sapiens (Human); also recorded: Lactotransferrin precursor - Homo sapiens (Human)

# — PMC2639705, “Two Chromogranin A-Derived Peptides Induce Calcium Entry in Human Neutrophils by Calmodulin-Regulated Calcium Independent Phospholipase A2” (PLoS ONE, 2009)
